According to publication PMC4669745:
No constants are given. Whether binding was seen depends on the method and setting. Binding seen in cells or lysates may run through a third protein. Some entries that bind do so weakly or less than the wild type.

Chains of the proteins cited; added tags and fusions are not shown.
UniProt Q07812: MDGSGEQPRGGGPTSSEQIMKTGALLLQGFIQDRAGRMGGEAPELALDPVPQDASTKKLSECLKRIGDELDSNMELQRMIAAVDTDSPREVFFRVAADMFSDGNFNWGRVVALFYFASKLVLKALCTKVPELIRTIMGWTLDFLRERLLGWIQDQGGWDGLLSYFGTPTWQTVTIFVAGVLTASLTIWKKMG

Target: BAX (human (endogenous in HeLa)) (UniProt Q07812)
Assay: co-IP; HeLa cell lysates (untransfected or vector, or DRAM1-pcDNA4 for 48 h; also after serum-free medium for 4 h) incubated with 2 ug antibody (anti-BAX or anti-DRAM1) overnight at 4 °C, IgG/IgA beads, washed three times in 1x PBS pH 7.4, immunoblot

| binding | Binder |
| --- | --- |
| binds | DRAM1 (DNA damage-regulated autophagy modulator 1) (protein, UniProt Q8N682 1-238) MLCFLRGMAFVPFLLVTWSSAAFIISYVVAVLSGHVNPFLPYISDTGTTPPESGIFGFMINFSAFLGAATMYTRYKIVQKQNQTCYFSTPVFNLVSLVLGLVGCFGMGIVANFQELAVPVVHDGGALLAFVCGVVYTLLQSIISYKSCPQWNSLSTCHIRMVISAVSCAAVIPMIVCASLISITKLEWNPREKDYVYHVVSAICEWTVAFGFIFYFLTFIQDFQSVTLRISTEINGDI |
| binds | DRAM1 expressed from DRAM1-pcDNA4 (protein, UniProt Q8N682 1-238) MLCFLRGMAFVPFLLVTWSSAAFIISYVVAVLSGHVNPFLPYISDTGTTPPESGIFGFMINFSAFLGAATMYTRYKIVQKQNQTCYFSTPVFNLVSLVLGLVGCFGMGIVANFQELAVPVVHDGGALLAFVCGVVYTLLQSIISYKSCPQWNSLSTCHIRMVISAVSCAAVIPMIVCASLISITKLEWNPREKDYVYHVVSAICEWTVAFGFIFYFLTFIQDFQSVTLRISTEINGDI |
